Screening data, single-dose tests

By UniProt entry, the sequences of proteins in these tests, tags left out. Residues count along the entry.
UniProt P9WNZ1, whole entry: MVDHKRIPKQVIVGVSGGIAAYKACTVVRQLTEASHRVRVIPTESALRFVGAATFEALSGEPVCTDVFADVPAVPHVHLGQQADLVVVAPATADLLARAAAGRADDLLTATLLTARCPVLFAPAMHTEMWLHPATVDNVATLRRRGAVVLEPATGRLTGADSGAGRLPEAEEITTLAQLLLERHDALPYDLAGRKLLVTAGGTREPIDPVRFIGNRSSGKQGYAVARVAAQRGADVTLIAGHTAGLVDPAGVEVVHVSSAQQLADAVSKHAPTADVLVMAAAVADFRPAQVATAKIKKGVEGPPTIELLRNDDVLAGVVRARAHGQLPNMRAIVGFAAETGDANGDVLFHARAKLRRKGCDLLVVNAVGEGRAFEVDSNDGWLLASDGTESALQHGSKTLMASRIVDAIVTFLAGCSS
UniProt Q4DA54, 1-478: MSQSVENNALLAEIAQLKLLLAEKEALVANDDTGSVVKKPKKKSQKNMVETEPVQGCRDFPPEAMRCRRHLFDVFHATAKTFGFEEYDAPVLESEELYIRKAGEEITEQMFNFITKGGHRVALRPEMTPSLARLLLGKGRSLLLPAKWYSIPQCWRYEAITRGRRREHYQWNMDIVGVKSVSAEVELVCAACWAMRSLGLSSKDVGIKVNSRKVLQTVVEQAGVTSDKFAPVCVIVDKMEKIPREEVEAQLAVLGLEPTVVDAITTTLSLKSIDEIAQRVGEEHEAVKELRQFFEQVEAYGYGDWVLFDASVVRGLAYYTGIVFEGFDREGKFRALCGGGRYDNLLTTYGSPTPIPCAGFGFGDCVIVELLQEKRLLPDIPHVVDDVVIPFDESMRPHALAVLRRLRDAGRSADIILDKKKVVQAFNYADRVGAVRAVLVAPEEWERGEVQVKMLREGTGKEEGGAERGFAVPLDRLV

Source: ChEMBL document CHEMBL3988442, “University of Dundee, Small-Polar-MMV Screening Library” (2021).

A: 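Enzyme assay of CoaBC with a phosphate dye (Biomol Green) read at 650 nm. Target: Coenzyme A biosynthesis protein CoaBC, Mycobacterium tuberculosis (UniProt P9WNZ1). Compounds at 30 µM. Direction is inferred from only a few compounds that gave an IC50; most scored high, so higher reads as stronger inhibition. Most strong results did not repeat in a second test. About 67,000 compounds were tested under these conditions; 0.06% (about 40) showed 50% or more at least once.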
B: 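Enzyme assay of histidyl-tRNA synthetase; the read-out is not stated. Target: Histidine-tRNA ligase, Trypanosoma cruzi CL Brener (UniProt Q4DA54). Tested at 30 µM. The record gives no direction; compounds that gave an IC50 in retests scored well above the rest, so higher reads as stronger inhibition. Of about 69,000 compounds tested this way, about 31 (0.045%) reached 50% or more in at least one test.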

Each number is a percent effect as filed. The record does not define 0% and 100%; most values in the screen are far below 50% and negative numbers occur (in some assays of this library far below -100). This is an unselected part of the compounds tested. A dash means the value is not listed here; it may have been measured.

| # | Compound | A | B |
|---|---|---|---|
| 1 | `NC(=O)c1ccnc(N2CCN(Cc3ccc(F)cc3Cl)CC2)c1` | 7.372% | 1.97% |
| 2 | `CCc1noc(CN(C)CCC(=O)Nc2ccccc2C#N)n1` | 5.353% | 5.759% |
| 3 | `COC(C)c1noc(CN(C)c2ncc(Br)cn2)n1` (configuration not stated) | 6.827% | 0% |
| 4 | `Cc1ccc(C(=O)NCc2cccnc2N(C)C)s1` | 0.2389% | 8% |
| 5 | `CCc1nc(NS(=O)(=O)c2ccc(C)cc2Cl)no1` | -3.125% | 0.4149% |
| 6 | `Cc1ccccc1C1(C(=O)NCCN2CCCC2)CCOCC1` | 2.966% | -1.504% |
| 7 | `CN(C)CCCNC(=O)c1nnsc1-c1ccccc1` | 3.571% | 2.232% |
| 8 | `CSc1nnc(CC2CCN(C(=O)COc3cccnc3)CC2)n1C` | 10% | 0% |
| 9 | `Cc1cn2c(n1)CCC(NC(=O)c1ccc(CS(C)(=O)=O)o1)C2` (configuration not stated) | 0.7979% | 2.662% |
| 10 | `Cc1n[nH]c(C)c1CCN(C)C(=O)C(c1cccnc1)N1CCOCC1` (configuration not stated) | 1.623% | 6.122% |
| 11 | `O=C(NCC1(O)CCOC1)NCC1(c2ccccc2Cl)CCC1` (configuration not stated) | 4.8% | -2.299% |
| 12 | `Cc1cc(C)n(C2CCCN(C(=O)c3ccc(N(C)C)nn3)C2)n1` (configuration not stated) | 1.523% | 6.726% |
| 13 | `CC(=O)N1CCN(Cn2nc(-c3ccc(F)cc3)oc2=O)CC1` | 0.7229% | 5.344% |
| 14 | `Cc1cc(C)n(-c2ccc(C(=O)NCc3cncn3CC(C)C)cc2)n1` | 10.26% | 3.784% |
| 15 | `O=C(NCCNc1ncccn1)N(Cc1ccc(F)cc1F)C1CC1` | -2.571% | -1.504% |
| 16 | `Cn1cc(C(=O)N2CCCC2c2ccc3c(c2)OCO3)ccc1=O` (configuration not stated) | 0.2016% | 1.087% |
| 17 | `CC(NC(=O)N1CCCCCC1)c1ccc(S(N)(=O)=O)cc1` (configuration not stated) | 4.403% | 3.571% |
| 18 | `CCC(C#N)NC(=O)CCNC(=O)C(C)(C)C` (configuration not stated) | -0.4016% | 1.064% |
| 19 | `CCN1CCC(CNS(=O)(=O)N2CCc3ccccc3C2)C1` (configuration not stated) | 0.4902% | 2.381% |
| 20 | `NC(=O)CNC(=O)c1cc(Cn2cnc3ccccc32)[nH]n1` | 5.521% | 6.173% |
| 21 | `COCCNC(=O)Cn1ccc2ccc(F)cc21` | 1.151% | 9.375% |
| 22 | `Cc1cc(I)cnc1NC(=O)C(C)(C)C` | 3.984% | -4.211% |
| 23 | `O=C(CCc1nc(C2CC2)no1)c1ccc2c(c1)OCCO2` | -0.1272% | 8.173% |
| 24 | `CNC(=O)N1Cc2cc(F)ccc2C2(CCN(C)CC2)C1` | - | 3.681% |
| 25 | `Cc1nccn1C1(C(=O)O)CCN(Cc2ccc3c(c2)OCCO3)CC1` | 10.91% | 0.5405% |
| 26 | `COc1cccc(-c2n[nH]cc2CNC2CCCN(C)C2)c1` (configuration not stated) | 6.358% | -1.754% |
| 27 | `O=C(CN1CCCCC1Cn1cncn1)NCCc1ccsc1` (configuration not stated) | 0.7874% | 9.143% |
| 28 | `Cc1nccc(NCc2cncc3c2CCN(CCN(C)C)C3)n1` | 5.432% | 9.524% |
| 29 | `CC(C(=O)Nc1ccnn1C(C)C)N1CCCN(c2nccs2)CC1` (configuration not stated) | 4% | 0% |
| 30 | `OCc1ccc(N2CCN(c3ncccn3)CC2)c(F)c1` | 7.2% | 2.299% |
| 31 | `CNc1ccc(C2CN(c3cc(C)nc(N)n3)CCO2)nc1` (configuration not stated) | -13.08% | 1.13% |
| 32 | `Cc1ccc(CC(=O)N2CC[C@@H]3NC(=O)CC[C@@H]32)cc1` | -26.85% | 10.75% |
| 33 | `COc1ccc2c(c1)C(C(=O)NCCN1CCNC1=O)CC(=O)N2` (configuration not stated) | 1.272% | -3.614% |
| 34 | `CS(=O)(=O)Nc1ccn(Cc2ccc(Br)cc2)n1` | 11.55% | -2.609% |
| 35 | `Cc1ccoc1C(=O)N1C[C@@H]2COC[C@]2(CNS(C)(=O)=O)C1` | -16.63% | -37.63% |
| 36 | `CC1(C)CC(N(Cc2ccccc2)Cc2ncc[nH]2)CC(C)(C)N1` | 4.785% | 8.046% |
| 37 | `Cc1cn(CC(=O)NC2CCN(S(C)(=O)=O)CC2)c2ccccc12` | 6.608% | -0.8475% |
| 38 | `CCN(CC)c1ncnc2c(C)nn(CC)c12` | 4.612% | 4.95% |
| 39 | `Cn1cc(CCC(=O)N2CCCC(n3cncn3)C2)cn1` (configuration not stated) | -0.7833% | 4.52% |
| 40 | `Cc1[nH]ccc1C(=O)N1C[C@H]2CC[C@@H]1CN(S(=O)(=O)N(C)C)C2` | 1.599% | 11.49% |
| 41 | `CSCc1noc(CNC(=O)C2CCN(C3CCCCC3)CC2)n1` | 9.185% | 3.077% |
| 42 | `O=C(c1cccc(F)c1)N1CCCC1c1ncc2c(n1)CCNC2` (configuration not stated) | 2.184% | 10.99% |
| 43 | `COc1c(C(N)=O)cn(C)c1-c1nc2cc(NC(C)=O)ccc2n1C` | 2.273% | -0.5848% |
| 44 | `CN(C)c1cc2c(nn1)CCN(C(=O)C1CCCc3ccccc31)C2` (configuration not stated) | 3.571% | 5.263% |
| 45 | `CCS(=O)(=O)N1Cc2ccccc2CC1C(=O)OCc1cc(C)no1` (configuration not stated) | 12.02% | 0.8696% |
| 46 | `Cn1ccnc1CN1C[C@H]2CN(S(=O)(=O)c3ccccc3)CCN2C1=O` | -22.59% | -1.493% |
| 47 | `N#Cc1ccccc1C(=O)Nc1cccc(CN2CCC(CO)CC2)c1` | 9.208% | 12.06% |